According to PubChem BioAssay AID588397 (National Center for Advancing Translational Sciences (NCATS), 2011):
Out of some 1,300 compounds screened, about 1,000 (77%) were called active. So high a share suggests a set chosen from earlier hits. The shares of active, inactive and inconclusive entries below differ from those in the screen. The call rests on the fitted dose curve; in most records, active means well fitted inhibition curve with a large enough effect; inconclusive means small, poorly fitted or top-dose-only effect; inactive means no such curve, though single readings can be large or run the other way. Potencies beside an inconclusive call are fits to weak or partial responses and may not hold up.

experiment: qHTS of small molecules that selectively kill Giardia lamblia: Hit Validation.;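 further: viability measured as ATP content by luminescence so killing lowers signal; trophozoites exposed to compounds for 48 h anaerobically at 37 °C; nearly all actives have a fitted effect of over 65% in size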; conditions: Giardia lamblia trophozoite viability, dose-response; series mostly up to 38.3 µM; activity change, negative = killing: at the top concentration
Summary of the method: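 HTS viability screen: compound-treated trophozoites (100 cells/well) are kept anaerobic at 37 deg C for 48 hrs, and surviving cells are detected through ATP-dependent luminescence.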
On the % scale 0 is the no-effect control and ±100 the full control effect; potency means the concentration at half of the fitted maximal effect.

SMILES	Potency	activity change, negative = killing
Cc1cc(=S)nc(-c2ccccn2)[nH]1	inconclusive: 18.3 µM [inhibitor, partial curve]	
Cc1ccc(S(=O)(=O)N2[C@@H](c3ccc(F)cc3)C(C(=O)O)=CC[C@H]2c2cccc(C)c2)cc1	inconclusive: 11.6 µM [inhibitor, partial curve]	
CSC1SCC2C(=O)N(C)C(C(C)C)C(=O)OCC(NC(=O)c3cnc4ccccc4n3)C(=O)NC(C)C(=O)N(C)C1C(=O)N(C)C(C(C)C)C(=O)OCC(NC(=O)c1cnc3ccccc3n1)C(=O)NC(C)C(=O)N2C (configuration not stated)	active: 0.206 µM	
O=C(Nc1ccc(Cl)cn1)c1ccccc1[N+](=O)[O-]	inconclusive: 46 µM [inhibitor, partial curve, poor fit]	
Cc1ccc([C@H]2C(C(=O)O)=CC[C@@H](c3ccc(C)cc3)N2S(=O)(=O)c2ccc(C)cc2)cc1	inconclusive: 0.818 µM [inhibitor, full curve, poor fit]	
CCN(CC)S(=O)(=O)c1cccc(N=Nc2c(O)c3ccccc3oc2=O)c1	inconclusive: 4.6 µM [inhibitor, full curve, poor fit]	
O=C1N=C(N2CCCCC2)S/C1=C\c1ccc(Br)cc1	inconclusive: 579 µM [inhibitor, partial curve, poor fit]	
Cn1c(CNC(=O)c2ccccc2F)cc2ccccc21		inactive: 11%
OC(COc1cccc2ccccc12)CN1CCN(c2ccc(Cl)cc2)CC1 (configuration not stated)	inconclusive: 36.5 µM [inhibitor, partial curve]	
CCN(CC)C(=S)SSC(=S)N(CC)CC	inconclusive: 36.5 µM [inhibitor, partial curve]	
Fc1ccc2cc(-c3ccsc3)ncc2c1	inconclusive: 5.79 µM [inhibitor, full curve, poor fit]	
Cc1ccc([C@@H]2CC=C(C(=O)O)[C@H](c3ccc(Cl)cc3)N2S(=O)(=O)c2ccc(C)cc2)cc1	inconclusive: 1.03 µM [inhibitor, full curve]	
CC(C)CC(=O)NC(=S)NNC(=O)c1cccc([N+](=O)[O-])c1	inconclusive: 18.3 µM [inhibitor, partial curve, poor fit]	
COc1ccccc1-c1nnc(C2CCN(S(=O)(=O)c3cccc([N+](=O)[O-])c3)CC2)o1	inconclusive: 23.1 µM [inhibitor, partial curve]	
O=C(CNc1cccc2ccccc12)N/N=C/c1ccc([N+](=O)[O-])o1	inconclusive: 25.9 µM [inhibitor, full curve, poor fit]	
COc1ccc2nc(COC(=O)c3cccc([N+](=O)[O-])c3)c(C(C)=O)[n+]([O-])c2c1	inconclusive: 23.1 µM [inhibitor, partial curve, poor fit]	
C=C1C=C(C)n2ncc(C(=O)Nc3ccc(C)cn3)c2N1	inconclusive: 57.9 µM [inhibitor, partial curve, poor fit]	
NC(=S)N/N=C1\c2ccccc2-c2c(C(=O)O)cccc21		inactive: -2.7%
CCc1ccccc1NC(=O)CC(NCc1ccccc1)C(=O)O (configuration not stated)		inactive: -10.3%
CC(C)OC(=O)Nc1ccc2c(c1)N(C(=O)N1CCN(C)CC1)c1ccccc1CC2	active: 4.1 µM	
COc1ccc(C)cc1NC(=O)c1cc(S(=O)(=O)N2CCCC2)cn1C	inconclusive: 46 µM [inhibitor, partial curve]	

One compound at a time, as listed above:
COc1ccccc1-c1nnc(C2CCN(S(=O)(=O)c3cccc([N+](=O)[O-])c3)CC2)o1 as listed: Potency: inconclusive: 23.1 µM [inhibitor, partial curve]
NC(=S)N/N=C1\c2ccccc2-c2c(C(=O)O)cccc21 as listed: activity change, negative = killing: inactive: -2.7%
OC(COc1cccc2ccccc12)CN1CCN(c2ccc(Cl)cc2)CC1 (configuration not stated) as listed: Potency: inconclusive: 36.5 µM [inhibitor, partial curve]

Continued:

SMILES	Potency	activity change, negative = killing
C/C(=N\NC(=O)COc1ccc(C)cc1Br)c1cc([N+](=O)[O-])cs1	active: 1.63 µM	
Cc1ccc(S(=O)(=O)N2[C@@H](c3ccccc3)C(C(=O)O)=CC[C@H]2c2ccc3c(c2)OCO3)cc1	inconclusive: 91.8 µM [inhibitor, partial curve, poor fit]	
CCN1C[C@@H]2[C@@H]3C(=O)N(C)C(=O)[C@@H]3[C@](C)(C1=O)N2C(=O)c1ccc(Cl)c(Cl)c1		inactive: -11.8%
COc1cc2c(c3oc(-c4ccccc4)cc(=O)c13)C=CC(C)(C)O2	inconclusive: 0.46 µM [inhibitor, full curve, poor fit]	
Cc1cc(NC(=O)c2ccc(Cl)cc2Cl)n(-c2ccccc2)n1	inconclusive: 46 µM [inhibitor, partial curve]	
Cc1ccc(S(=O)(=O)N2[C@@H](c3cccc(Cl)c3)C(C(=O)O)=CC[C@H]2c2cccc(Cl)c2)cc1	inconclusive: 0.0579 µM [inhibitor, full curve]	
O=C(CNC(=O)c1ccccc1F)N/N=C/c1cc(Br)ccc1OCc1ccccc1	inconclusive: 0.365 µM [inhibitor, full curve]	
O=C(NN1C(=O)c2ccccc2NC1c1ccc([N+](=O)[O-])o1)c1ccc([N+](=O)[O-])cc1 (configuration not stated)	active: 2.05 µM	
COc1ccc(C(=O)NC2CCN(S(=O)(=O)c3ccc(F)cc3)CC2)cc1		inactive: 18.6%
Cc1c(C(=O)O)sc2nc(SCC(=O)Nc3ccc(S(=O)(=O)NC(C)(C)C)cc3)[nH]c(=O)c12		inactive: -1.26%
Cc1ccc(OCC(=O)c2cc(C)n(C)c2C)c([N+](=O)[O-])n1	active: 1.45 µM	
Cc1oc2cc(O)ccc2c(=O)c1Oc1ccccc1Br	inconclusive: 1.03 µM [inhibitor, full curve]	
CCOc1ccc(NC(=O)C(C)C(Cc2ccc(C)cc2)C(=O)O)cc1 (configuration not stated)	inconclusive: 0.516 µM [inhibitor, full curve]	
COC(=O)c1cc(NC(=O)c2cc(C(C)(C)C)nn2Cc2ccc(F)cc2)ccc1N1CCOCC1	inconclusive: 57.9 µM [inhibitor, partial curve, poor fit]	
COc1ccc(S(=O)(=O)N(C(C)=O)c2ccc(OC(C)=O)c3ccccc23)cc1[N+](=O)[O-]	inconclusive: 72.9 µM [inhibitor, partial curve, poor fit]	
O=C(O)C=C(Br)Br	inconclusive: 0.818 µM [inhibitor, full curve, poor fit]	
Cc1ccc(S(=O)(=O)NC(=S)c2ccccc2)cc1	inconclusive: 91.8 µM [inhibitor, partial curve, poor fit]	
COc1ccc(N2CCCC2)c(NC(=O)c2ccc([N+](=O)[O-])o2)c1	active: 0.516 µM	
COc1cc(C(=O)NC(=S)Nc2ccc(Cl)cn2)cc(OC)c1OC		inactive: -7.19%
CN(C)c1nc(=NCc2ccco2)ss1	inconclusive: 2.9 µM [inhibitor, full curve]	
O=C(O)CCN1C(=O)C2C3c4ccccc4C(c4ccccc43)C2C1=O (configuration not stated)	inconclusive: 1.03 µM [inhibitor, full curve]	

SMILES	Potency	activity change, negative = killing
CCN(CC)CCNC(=O)c1ccc(NC(=O)COc2ccc3c(c2)CCC3)cc1		inactive: -8.63%
Cc1ccc(CNC(=O)c2cc(S(=O)(=O)N3CCOCC3)cn2C)cc1		inactive: -15.8%
O=C(Nc1ccc(F)cc1)C1CCN(C(=O)c2ccc([N+](=O)[O-])cc2)CC1	inconclusive: 23.1 µM [inhibitor, partial curve]	
CN(C)C(=O)C[n+]1ccc(C(N)=O)cc1		inactive: -26.8%
Fc1cc2[nH]cnc2cc1Cl		inactive: -8.27%
COc1cc(C2C(C(=O)c3ccc(C)o3)=C(O)C(=O)N2c2cc(C)on2)ccc1OCc1ccccc1 (configuration not stated)		inactive: -44.3%
CCN(C(=O)C1CCN(S(=O)(=O)c2ccc3c(c2)oc(=O)n3C)CC1)c1cccc(C)c1		inactive: -7.64%
Cn1nc([N+](=O)[O-])nc1N1CCOCC1	active: 0.326 µM	
O=[N+]([O-])c1nn(-c2ccccc2)n(O)c1=NC1CCN(Cc2ccccc2)CC1	active: 0.365 µM	
Cc1ccc(S(=O)(=O)N2[C@@H](c3ccccc3F)C(C(=O)O)=CC[C@H]2c2ccc(Cl)cc2)cc1	inconclusive: 0.365 µM [inhibitor, full curve]	
Cc1ncc(CO)c(/C=N/NC(=O)c2cc3c(s2)CCCC3)c1O	inconclusive: 3650 µM [inhibitor, partial curve, poor fit]	
COc1ccc(NS(=O)(=O)c2cc(NC(=O)c3ccc(=O)[nH]c3)ccc2C)cc1		inactive: 7.37%
CC1CCCN(C(=O)c2ccc([N+](=O)[O-])o2)C1 (configuration not stated)	active: 5.16 µM	
COc1ccc(C(=O)N(Cc2ccccc2)c2cccc(C)c2)cc1	inconclusive: 72.9 µM [inhibitor, partial curve, poor fit]	
COc1ccc(CC(NC(C)=O)C(=O)NC2CCN(c3ncccc3[N+](=O)[O-])CC2)cc1 (configuration not stated)	active: 2.05 µM	
O=C(OCc1nc2ccccc2[n+]([O-])c1C(=O)c1ccccc1)c1ccco1	inconclusive: 1.03 µM [inhibitor, full curve]	
Cc1ccc(S(=O)(=O)N2[C@@H](c3ccc(Cl)cc3)C(C(=O)O)=C[C@H]2CC2CCCC2)cc1	inconclusive: 72.9 µM [inhibitor, partial curve, poor fit]	
COc1cccc(CN=c2c([N+](=O)[O-])nn(-c3ccccc3C)n2O)c1	inconclusive: 46 µM [inhibitor, partial curve]	
OCCSc1nc(-c2ccccc2)nc2ccc(F)cc12	inconclusive: 23.1 µM [inhibitor, partial curve]	
CC1(C)CC2CC(C)(CN2S(=O)(=O)c2cccc(C(=O)O)c2)C1 (configuration not stated)	inconclusive: 0.0205 µM [inhibitor, full curve]	
Cc1ccc(S(=O)(=O)N2[C@@H](c3ccccc3F)C(C(=O)O)=CC[C@H]2c2cccc(C)c2)cc1	inconclusive: 0.163 µM [inhibitor, full curve, poor fit]	

In another format: three of the compounds above.

| SMILES | Potency | activity change, negative = killing |
| --- | --- | --- |
| CCc1ccccc1NC(=O)CC(NCc1ccccc1)C(=O)O (configuration not stated) |  | inactive: -10.3% |
| CC(C)OC(=O)Nc1ccc2c(c1)N(C(=O)N1CCN(C)CC1)c1ccccc1CC2 | active: 4.1 µM |  |
| COc1ccc(C)cc1NC(=O)c1cc(S(=O)(=O)N2CCCC2)cn1C | inconclusive: 46 µM [inhibitor, partial curve] |  |

The list goes on.

SMILES	Potency	activity change, negative = killing
Nc1ncn([C@H]2C[C@H](O)[C@@H](CO)O2)c(=O)n1	inconclusive: 0.259 µM [inhibitor, full curve]	
COC(=O)c1ccc(Nc2ccc3nonc3c2[N+](=O)[O-])cc1	active: 2.05 µM	
Cc1ccc(S(=O)(=O)N2[C@@H](c3ccc(F)cc3)C(C(=O)O)=CC[C@H]2c2cccs2)cc1	inconclusive: 0.13 µM [inhibitor, full curve]	
CCOc1ccc(-c2c(C(=O)N/N=C/c3ccc(C)s3)nnn2-c2nonc2N)cc1	inconclusive: 46 µM [inhibitor, partial curve, poor fit]	
COc1cc(-c2noc(C)c2C#Cc2ccsc2)cc(OC)c1OC	inconclusive: 0.918 µM [inhibitor, full curve]	
COc1cccc([C@@H]2CC=C(C(=O)O)[C@H](c3cccc(Cl)c3)N2S(=O)(=O)c2ccc(C)cc2)c1	inconclusive: 0.0365 µM [inhibitor, full curve]	
COC(=O)[C@]1(C)N[C@H](CN(C)S(=O)(=O)c2ccc(-c3ccccc3)cc2)[C@@H]2C(=O)N(C)C(=O)[C@@H]21		inactive: -15.1%
CCN(Cc1ccncc1)C(=O)CC1C(=O)NCCN1Cc1ccc(F)c(F)c1 (configuration not stated)		inactive: 2.79%
Cc1ccc([N+](=O)[O-])c(C(=O)Nc2cccnc2Cl)c1		inactive: -9.71%
Cc1ccc(NC(=S)NNc2ccc([N+](=O)[O-])cc2S(=O)(=O)Nc2ccccc2C(=O)O)cc1C	inconclusive: 72.9 µM [inhibitor, partial curve, poor fit]	
Cc1cc(Nc2ccccc2)c2c([N+](=O)[O-])ccc(C)c2n1	active: 0.259 µM	
Cc1ccc(OCC(=O)N(Cc2cccc(Cl)c2)C2CCS(=O)(=O)C2)cc1C (configuration not stated)		inactive: -0.809%
O=C(COc1cccnc1[N+](=O)[O-])NCCc1ccc(Cl)cc1Cl	inconclusive: 4.6 µM [inhibitor, partial curve]	
CN(C(=O)c1cc([N+](=O)[O-])ccc1NCc1cccnc1)c1ccccc1		inactive: -18%
CC(C)OCCCN(C)C1CCN(S(=O)(=O)c2ccc(-c3cc(C(F)(F)F)no3)s2)CC1	inconclusive: 29 µM [inhibitor, partial curve, poor fit]	
CCC(C(=O)N1CCOCC1)n1nc(C)n2c(cc3cc(C)ccc32)c1=O (configuration not stated)		inactive: 2.43%
N=C1C(c2ccccc2)=C(O)CN1c1cccc(S(=O)(=O)N2CCOCC2)c1		inactive: -16.5%
COc1cccc([C@@H]2CC=C(C(=O)O)[C@H](c3ccccc3F)N2S(=O)(=O)c2ccc(C)cc2)c1	inconclusive: 0.818 µM [inhibitor, full curve]	
COc1ccc(OC)c(CCNC(=O)CSc2ccsc2[N+](=O)[O-])c1	active: 0.729 µM	
